Results are given in words; binding and its absence hold for the method and conditions named. In cells and extracts the contact can be indirect. Some entries that bind do so weakly or less than the wild type. For some of these results: Sequences can lack the tags named with a protein.
Assays:
3xMyc-TRAF2 (A549 cells) = biological target: T1, 3xMyc-TRAF2 (A549 cells) (UniProt Q12933); experiment: co-IP; A549 cells with HA-tagged KEAP1; Flag IP of Flag-RIPK1 or Myc IP of Myc-TRAF2, blot for KEAP1 (Fig. 4B, C, F, G); RIPA lysates, antibody-conjugated magnetic beads
T1 sequence: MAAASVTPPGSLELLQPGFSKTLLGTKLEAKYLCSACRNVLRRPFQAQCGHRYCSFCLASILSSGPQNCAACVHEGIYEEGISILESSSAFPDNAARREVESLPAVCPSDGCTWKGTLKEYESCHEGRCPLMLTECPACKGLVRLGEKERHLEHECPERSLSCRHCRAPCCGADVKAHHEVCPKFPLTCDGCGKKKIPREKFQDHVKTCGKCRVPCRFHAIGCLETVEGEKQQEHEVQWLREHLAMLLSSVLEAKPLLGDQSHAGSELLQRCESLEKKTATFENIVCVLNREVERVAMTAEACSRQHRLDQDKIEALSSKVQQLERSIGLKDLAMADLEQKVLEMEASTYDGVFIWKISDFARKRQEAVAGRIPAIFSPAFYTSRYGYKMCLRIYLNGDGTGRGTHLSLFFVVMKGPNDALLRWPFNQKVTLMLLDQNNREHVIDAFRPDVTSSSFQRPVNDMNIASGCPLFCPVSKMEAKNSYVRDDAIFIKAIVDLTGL

Amino acid sequences for entries named in this document (tags omitted). A change or cut given only in a name is not applied to a line headed by its entry.
UniProt Q13546: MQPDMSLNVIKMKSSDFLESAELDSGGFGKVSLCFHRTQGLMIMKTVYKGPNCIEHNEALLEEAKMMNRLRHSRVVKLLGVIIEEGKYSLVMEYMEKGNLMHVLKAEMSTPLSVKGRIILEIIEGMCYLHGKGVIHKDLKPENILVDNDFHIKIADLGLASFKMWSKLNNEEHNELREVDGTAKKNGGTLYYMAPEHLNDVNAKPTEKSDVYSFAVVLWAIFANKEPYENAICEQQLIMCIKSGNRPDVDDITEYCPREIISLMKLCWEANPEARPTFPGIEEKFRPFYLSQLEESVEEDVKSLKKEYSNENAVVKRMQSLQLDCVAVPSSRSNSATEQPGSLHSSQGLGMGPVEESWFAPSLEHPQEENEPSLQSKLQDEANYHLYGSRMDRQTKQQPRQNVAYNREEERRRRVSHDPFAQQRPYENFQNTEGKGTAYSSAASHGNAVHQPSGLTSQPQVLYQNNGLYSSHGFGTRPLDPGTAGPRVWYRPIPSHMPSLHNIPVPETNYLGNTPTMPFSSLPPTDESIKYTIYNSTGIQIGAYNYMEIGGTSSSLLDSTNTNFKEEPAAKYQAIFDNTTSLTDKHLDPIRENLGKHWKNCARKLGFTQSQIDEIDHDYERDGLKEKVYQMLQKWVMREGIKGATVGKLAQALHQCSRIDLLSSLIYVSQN
UniProt Q14145: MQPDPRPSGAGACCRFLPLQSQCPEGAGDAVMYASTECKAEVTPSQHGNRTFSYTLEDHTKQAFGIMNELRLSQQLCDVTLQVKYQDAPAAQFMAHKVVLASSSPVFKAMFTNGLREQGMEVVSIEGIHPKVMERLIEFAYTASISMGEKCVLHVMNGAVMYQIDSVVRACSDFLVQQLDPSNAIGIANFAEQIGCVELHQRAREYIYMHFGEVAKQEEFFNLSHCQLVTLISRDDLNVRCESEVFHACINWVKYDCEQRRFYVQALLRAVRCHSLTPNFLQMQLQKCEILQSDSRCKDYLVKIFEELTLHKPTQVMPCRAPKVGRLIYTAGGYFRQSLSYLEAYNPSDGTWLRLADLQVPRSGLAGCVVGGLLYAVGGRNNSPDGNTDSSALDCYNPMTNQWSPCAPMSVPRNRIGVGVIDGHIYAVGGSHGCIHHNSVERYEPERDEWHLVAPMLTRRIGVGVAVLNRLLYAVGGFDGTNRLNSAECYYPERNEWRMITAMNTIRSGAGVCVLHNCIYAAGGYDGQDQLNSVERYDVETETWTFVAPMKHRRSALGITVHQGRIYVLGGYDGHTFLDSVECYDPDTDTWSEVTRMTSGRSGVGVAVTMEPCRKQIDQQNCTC

[1] = biological target: Flag-RIPK1 (receptor-interacting protein serine/threonine protein kinase 1) (UniProt Q13546); experiment: as above

| Substance | binding (3xMyc-TRAF2 (A549 cells)) | binding [1] |
| --- | --- | --- |
| mCherry-HA-KEAP1-R320Q (lentiviral, A549-LV cells) (from UniProt Q14145 1-624) | binds | binds |
| mCherry-HA-KEAP1-R470C (lentiviral, A549-LV cells) (from UniProt Q14145 1-624) | binds | binds |
